Test results reported in article PMC4229197.
No constants are given. Whether binding was seen depends on the method and setting.

Assays:
[1] = molecular target: Cry35Ab1 (Bacillus thuringiensis strain PS149B1) (UniProt Q939S9); test: crystal structure; each protein crystallised alone; one molecule per asymmetric unit; Cry34Ab1 2.15 Å (I422), Cry35Ab1 1.80 Å (P212121); both purified
[2] = molecular target: Cry34Ab1 (Bacillus thuringiensis strain PS149B1) (UniProt Q939T0); test: small angle X-ray scattering (SAXS); each protein alone, 2.07 to 6.86 mg/mL in 20 mM sodium citrate pH 3.3; synchrotron beamline 5-ID-D; envelopes compared with the crystal structures; both purified
[3] = molecular target: Cry34Ab1 (Bacillus thuringiensis strain PS149B1) (UniProt Q939T0); test: native MS; native nano-electrospray ion mobility mass spectrometry, each protein alone in 0.1% formic acid (pH 3.0); Cry34Ab1 approximately 12.9 µM, trCry35Ab1 approximately 15.9 µM; drift tube 27°C, nitrogen; both purified
[4] = molecular target: Cry34Ab1 (Bacillus thuringiensis strain PS149B1) (UniProt Q939T0); test: crystal structure; each protein crystallised alone; one molecule per asymmetric unit; Cry34Ab1 2.15 Å (I422), Cry35Ab1 1.80 Å (P212121); both purified
[5] = molecular target: truncated Cry35Ab1 (residues 1-354) (Bacillus thuringiensis strain PS149B1) (UniProt Q939S9); test: small angle X-ray scattering (SAXS); each protein alone, 2.07 to 6.86 mg/mL in 20 mM sodium citrate pH 3.3; synchrotron beamline 5-ID-D; envelopes compared with the crystal structures; both purified
[6] = molecular target: truncated Cry35Ab1 (residues 1-354) (Bacillus thuringiensis strain PS149B1) (UniProt Q939S9); test: native MS; native nano-electrospray ion mobility mass spectrometry, each protein alone in 0.1% formic acid (pH 3.0); Cry34Ab1 approximately 12.9 µM, trCry35Ab1 approximately 15.9 µM; drift tube 27°C, nitrogen; both purified

Cry35Ab1 (from UniProt Q939S9 1-383)
binding [1]: no binding

B1: Cry34Ab1 (protein, UniProt Q939T0 1-123)
chain: MSAREVHIDVNNKTGHTLQLEDKTKLDGGRWRTSPTNVANDQIKTFVAESNGFMTGTEGTIYYSINGEAEISLYFDNPFAGSNKYDGHSNKSQYEIITQGGSGNQSHVTYTIQTTSSRYGHKS
binding [2]: no binding (tested: 2.07 to 6.86 mg/mL)
binding [3]: no binding (tested: approximately 12.9 µM)
binding [4]: no binding

B2: truncated Cry35Ab1 (residues 1-354) (domain or fragment, UniProt Q939S9 1-354)
chain: MLDTNKVYEISNHANGLYAATYLSLDDSGVSLMNKNDDDIDDYNLKWFLFPIDDDQYIITSYAANNCKVWNVNNDKINVSTYSSTNSIQKWQIKANGSSYVIQSDNGKVLTAGTGQALGLIRLTDESSNNPNQQWNLTSVQTIQLPQKPIIDTKLKDYPKYSPTGNIDNGTSPQLMGWTLVPCIMVNDPNIDKNTQIKTTPYYILKKYQYWQRAVGSNVALRPHEKKSYTYEWGTEIDQKTTIINTLGFQINIDSGMKFDIPEVGGGTDEIKTQLNEELKIEYSHETKIMEKYQEQSEIDNPTDQSMNSIGFLTITSLELYRYNGSEIRIMQIQTSDNDTYNVTSYPNHQQALL
binding [5]: no binding (tested: 2.07 to 6.86 mg/mL)
binding [6]: no binding (tested: approximately 15.9 µM)
